The target of this assay is T1, GST-MOB4 wild-type (human) (UniProt Q9Y3A3).
T1 sequence: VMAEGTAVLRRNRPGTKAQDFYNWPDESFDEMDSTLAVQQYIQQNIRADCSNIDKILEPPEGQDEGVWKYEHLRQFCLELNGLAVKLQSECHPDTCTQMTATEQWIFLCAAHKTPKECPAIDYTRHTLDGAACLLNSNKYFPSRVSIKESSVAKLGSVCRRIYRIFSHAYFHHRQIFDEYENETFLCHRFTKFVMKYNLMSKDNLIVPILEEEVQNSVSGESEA
As to the kind of experiment: affinity purification with mass spectrometry; GST-MOB4 WT or RRR→AAA on glutathione beads, 2 mg lysate of okadaic acid-treated HeLa cells, 2 h at 4 °C; SAINTexpress scoring against glutathione resin alone; only the target purified.

Results are given in words; binding and its absence hold for the method and conditions named. In cells and extracts the contact can be indirect. These calls come from enrichment with a bait or labelling near it, and not all partners need be listed. Tags and fused reporters may be left off the sequences shown.

B1: MST2 (endogenous, HeLa) (protein, UniProt Q13188-1 1-491)
chain: MEQPPAPKSKLKKLSEDSLTKQPEEVFDVLEKLGEGSYGSVFKAIHKESGQVVAIKQVPVESDLQEIIKEISIMQQCDSPYVVKYYGSYFKNTDLWIVMEYCGAGSVSDIIRLRNKTLIEDEIATILKSTLKGLEYLHFMRKIHRDIKAGNILLNTEGHAKLADFGVAGQLTDTMAKRNTVIGTPFWMAPEVIQEIGYNCVADIWSLGITSIEMAEGKPPYADIHPMRAIFMIPTNPPPTFRKPELWSDDFTDFVKKCLVKNPEQRATATQLLQHPFIKNAKPVSILRDLITEAMEIKAKRHEEQQRELEEEEENSDEDELDSHTMVKTSVESVGTMRATSTMSEGAQTMIEHNSTMLESDLGTMVINSEDEEEEDGTMKRNATSPQVQRPSFMDYFDKQDFKNKSHENCNQNMHEPFPMSKNVFPDNWKVPQDGDFDFLKNLSLEELQMRLKALDPMMEREIEELRQRYTAKRQPILDAMDAKKRRQQNF
Take B1: the binding result is on record as “binds”.

Source of the values: publication PMC5461540, “MOB1 Mediated Phospho-recognition in the Core Mammalian Hippo Pathway” (Molecular & Cellular Proteomics : MCP, 2017).
